# Results of single-concentration screens

Data taken from ChEMBL document CHEMBL3988442, “University of Dundee, Small-Polar-MMV Screening Library” (2021).

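Assay of Toxoplasma gondii numbers, read through their beta-galactosidase reporter with a colour substrate. Compounds at 50 µM. Higher reads as fewer parasites (inferred from which compounds were picked for retests). Of about 18,000 compounds tested this way, about 170 (0.94%) reached 50% or more in at least one test.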

Results are given as percent effect.
The record does not define 0% and 100%; most values in the screen are far below 50% and negative numbers occur (in some assays of this library far below -100).
Compounds were drawn at random from those tested, without regard to their results.

SMILES,Percent Effect
Cc1nnc2ccc(NC3CCCOC3)nn12 (stereo unspecified),-0.02585
COc1ccnc(CN2CCCCC(N)C2)c1OC (stereo unspecified),-1.028
CC(CCn1cccn1)NC(=O)Cc1ccsc1 (stereo unspecified),-0.771
CN1CCC(NC(=O)CSCc2cccs2)CC1,-3.387
COCC1CCN(C(=O)C(CN)CC(C)C)CC1 (stereo unspecified),-5.103
CC(N)(CO)c1cccc(O)c1 (stereo unspecified),6.288
CC(C)(N)C1CCOCC1,-8.614
CCOc1ccc(C(O)C2CCNCC2)cc1 (stereo unspecified),8.728
CNC(CO)c1cc(OC)ccc1Br (stereo unspecified),-2.332
Cc1nc(CCN)c(C)o1,-1.484
O=C(Cn1cc(Br)ccc1=O)NCCC1=CCCCC1,7.374
O=C(NCCc1cn[nH]c1)[C@H](O)C1CCCCC1,2.93
NCc1nc(-c2ccccn2)no1,-15.18
CCNC(=O)N(C)C(C)c1cnn(C)c1 (stereo unspecified),-0.3376
CC(CC(=O)N1CCNCC1)c1ccccc1 (stereo unspecified),0.6537
COc1cc(CNC(=O)Nc2ccnc(C)c2)ccn1,-0.3711
CSCCN1CCN(C(=O)CCc2ccncc2)CC1,-6.442
O=c1c2ccc(F)cc2ncn1CCN1CCNCC1,5.06
CCn1nc(C)cc1C(=O)Nc1ccnc(N(C)C)n1,7.263
COCCNC1CCOC1 (stereo unspecified),-13.53
Cc1cccc(NC(=O)C2CCN(CCCO)CC2)n1,4.248
CC(NC(=O)c1ccco1)c1ccccn1 (stereo unspecified),0.433
CC1(C(=O)Nc2cccc(Cl)c2)CCCCC(=O)N1 (stereo unspecified),-29.4
N#CCCN1C(=O)c2cc(Cl)c(Cl)cc2C1=O,-7.274
Cc1ccc(C(N)CF)cc1 (stereo unspecified),9.03
CN(C)C(=O)N1CCN(Cc2ccccc2C#N)CC1,24.58
Cc1ccc(S(=O)(=O)N(C)C(C)CN)cc1 (stereo unspecified),-1.296
Cn1ccc(NC(=O)CN2CC[C@](C)(O)C(C)(C)C2)n1,3.541
CCN(CCn1cccn1)C(=O)c1cc(=O)cc(C)o1,7.771
CN1CCCN(C(=O)COc2ccc(C#N)cc2)CC1,10.92
CCC(N)c1nnc2n1CCCCC2 (stereo unspecified),11.82
CCOc1ncccc1C(=O)N1CCC(COC)C1 (stereo unspecified),-5.58
CC1CCCN1C1CCN(CCNS(C)(=O)=O)CC1 (stereo unspecified),-6.8
O=C(C1CCNCC1)N1CCNCC1,10.22
CN1CC(NC(=O)COc2cccnc2)CCC1=O (stereo unspecified),-2.706
CSCC(CCO)NC(=O)NCc1ccccc1Cl (stereo unspecified),3.627
COCCN(Cc1ccccc1)C(=O)c1cc(C)on1,13.47
CCN(C)C(=O)Nc1cnns1,-19.04
Cc1nnc(N2CCC(=O)CC2)s1,-4.926
OCc1ccc(Cc2c[nH]cn2)cc1,-74.03
Cc1noc(C)c1CN1CCn2nc(CO)cc2C1,-8.785
COCCN(CC(N)=O)CC(=O)N(C)c1ccccc1,-7.873
CSCc1cccc(C(=O)NC2CCN(C)CC2)c1,3.644
Nc1cnccc1NCCN1CCOCC1,3.054
CS(=O)(=O)NC1CCCN(c2nc3ccccc3[nH]2)C1 (stereo unspecified),-6.694
CNC(=O)C1CN(C(=O)c2ccc(Cl)c(C)c2)CCO1 (stereo unspecified),-6.784
CC(=O)c1cc(CN2Cc3cnn(CCO)c3C2)cs1,1.707
c1ccc(-c2n[nH]c(C3CCNCC3)n2)cc1,-11.87
CCCNC(=O)c1cc(Br)c[nH]1,-17.31
CCc1ccc(S(=O)(=O)N2CC[C@@H](N)C2)cc1CC,23.57
Cn1ccnc1N1CCN(C(=O)C2=CCCCO2)CC1,2.818
Cc1ccc(F)cc1NC(=O)C(C)Nc1cnn(C)c1 (stereo unspecified),17.75
Cc1nc(-c2cccnc2)sc1C(=O)N1CCCC1,2.261
CC1CCCN(CC(=O)NC2CC2)C1 (stereo unspecified),2.117
O=C1c2ccc(F)cc2C(=O)N1Cc1nnsc1Cl,52.75
O=C(NCC(c1ccco1)N1CCCC1)c1cnn[nH]1 (stereo unspecified),-5.677
Cc1ccc(C(C)NC(=O)Nc2nccn(C)c2=O)o1 (stereo unspecified),4.521
O=C(CCS(=O)(=O)c1ccccn1)NC1CCCCC1,-0.4555
CCN(C)C(=O)CN1CC(Oc2cccc(Cl)c2)C1,-0.3113
CC(C)[C@H](N)C(=O)N(C)c1ccccc1,-4.086

The last 5 entries again:

SMILES	Percent Effect
O=C(NCC(c1ccco1)N1CCCC1)c1cnn[nH]1 (stereo unspecified)	-5.677
Cc1ccc(C(C)NC(=O)Nc2nccn(C)c2=O)o1 (stereo unspecified)	4.521
O=C(CCS(=O)(=O)c1ccccn1)NC1CCCCC1	-0.4555
CCN(C)C(=O)CN1CC(Oc2cccc(Cl)c2)C1	-0.3113
CC(C)[C@H](N)C(=O)N(C)c1ccccc1	-4.086